PubChem BioAssay AID1259259, Sanger Institute, 2017
Aim: 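Kinome siRNA search for kinases essential alone or combined with trametinib, cetuximab or BYL719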 (primary screen). Cell system: SW1463 human colorectal cancer cells. Reagents: siRNA pool against human genes. Treatment: DMSO vehicle, or one anchor drug: BYL719 at 1 µM, cetuximab at 5 µg/ml, or trametinib at 10 nM. Read-out: 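Viability relative to control pool 2 (non-targeting) averaged over replicates, robust z-score for knock-down with no drug, and for each anchor drug the mean synergy score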. Reading the numbers: robust z-score, knock-down alone: higher = more viable cells after knock-down. Call rule: 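Knock-down called essential when its robust z-score without drug falls below -3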. Calls: active = essential: viability loss from knock-down alone; inactive = no change from knock-down alone.
Here is one part, drawn at random, of 794 reagents. 9 of them (1.1%) were called active. 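Calls rest on knock-down alone, not drug synergy; viability values seem capped at 1.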 Reagents against one gene are numbered here. Not all columns of the deposit are shown. No sequences are given here. The record does not give: the amount of reagent, the time to read-out.

NEK9
- robust z-score, knock-down alone: 0.78
- Call: inactive

ILK #1
- robust z-score, knock-down alone: 1.13
- Call: inactive

ILK #2
- robust z-score, knock-down alone: -0.242
- Call: inactive

KALRN
- robust z-score, knock-down alone: 0.333
- Call: inactive

NME1
- robust z-score, knock-down alone: 0.465
- Call: inactive

MAST3
- robust z-score, knock-down alone: -0.48
- Call: inactive

POMK
- robust z-score, knock-down alone: 0.888
- Call: inactive

HSPB8
- robust z-score, knock-down alone: 0.544
- Call: inactive

AK4
- robust z-score, knock-down alone: 0.386
- Call: inactive

FN1
- robust z-score, knock-down alone: 1.13
- Call: inactive

EPHB6
- robust z-score, knock-down alone: -0.489
- Call: inactive

MAP2K2
- robust z-score, knock-down alone: -0.161
- Call: inactive

PAK5
- robust z-score, knock-down alone: -1.03
- Call: inactive

PFKL
- robust z-score, knock-down alone: 1.13
- Call: inactive

IGF1R
- robust z-score, knock-down alone: 0.522
- Call: inactive

FES
- robust z-score, knock-down alone: -1.18
- Call: inactive

IPMK
- robust z-score, knock-down alone: -0.404
- Call: inactive

ITPKB
- robust z-score, knock-down alone: 1.13
- Call: inactive

CDK17
- robust z-score, knock-down alone: 1.13
- Call: inactive

Laid out differently: results already given
ILK #2 — robust z-score, knock-down alone: -0.242; Call: inactive
KALRN — robust z-score, knock-down alone: 0.333; Call: inactive
